Measured values published in PubChem BioAssay AID330 (DTP/NCI, 2004).
The list does not hold the whole screen: it is rich in T/C values a quarter to a half above the control, in often repeated tests (any T/C) and in doses without a T/C. Further doses and runs are listed elsewhere. T/C gives the treated animals as a percentage of the vehicle group. Some doses have a count of surviving animals in place of a T/C: the source files T/C as zero there, which appears to mark a toxic dose or a test without result, not a measured value. Some doses without a T/C left all or most animals alive at the check, yet need not have been tolerated: the source hardly ever lists a survival T/C far under the control, and the zero likely stands for such cases as well. Survivors were counted at the toxicity check, usually on the fifth day, unless a day is given; later deaths do not show. Schedules are NCI's codes, taken here to give the interval after Q, in days (D) or hours (H), and the number of doses after X. Some entries were tested several times; the values are given in rising order. For survival time, the PubChem record calls one and a half times the control and up active, and a quarter to a half above the control has no call in these data; cut-offs in other NCI protocols can differ. Some T/C values are followed by the survivors on the day toxicity was checked, most often the fifth; without a count, all were alive then.

Tested on: P388 leukemia ip, CD2F1 mice, survival T/C
Test: NCI In Vivo Anticancer Drug Screen. Data for tumor model P388 Leukemia (intraperitoneal) in CD2F1 (CDF1) mice
Settings: T/C endpoint: median survival time, higher T/C = longer survival
[1] = dose: 25.0 mg/kg/injection, schedule: Q01DX009 (ip), vehicle: saline
[2] = dose: 100.0 mg/kg/injection, schedule: Q01DX009 (ip), vehicle: saline with Tween-80
[3] = dose: 200.0 mg/kg/injection, schedule: Q01DX009 (ip), vehicle: saline with Tween-80
[4] = dose: 200.0 mg/kg/injection, schedule: Q01DX009 (ip), vehicle: saline
[5] = dose: 400.0 mg/kg/injection, schedule: Q04DX003 (ip), vehicle: Klucel (hydroxypropylcellulose) (HPC)
[6] = dose: 200.0 mg/kg/injection, schedule: Q01DX009 (ip), vehicle: Klucel (hydroxypropylcellulose) (HPC)
[7] = dose: 25.0 mg/kg/injection, schedule: Q01DX005 (ip), vehicle: saline with Tween-80
[8] = dose: 50.0 mg/kg/injection, schedule: Q01DX005 (ip), vehicle: saline with Tween-80
[9] = dose: 100.0 mg/kg/injection, schedule: Q01DX005 (ip), vehicle: saline with Tween-80
[10] = dose: 200.0 mg/kg/injection, schedule: Q01DX005 (ip), vehicle: saline with Tween-80
[11] = dose: 50.0 mg/kg/injection, schedule: Q01DX009 (ip), vehicle: water
[12] = dose: 200.0 mg/kg/injection, schedule: Q01DX005 (ip), vehicle: Klucel (hydroxypropylcellulose) (HPC)

In the case of `COc1cc(NCCCCCCCNC(C)C)c2nccc(C)c2c1`, the survivor count [1] is reported as 6 of 6.

For `C=C1CC(C2OCOC3COCOC32)OC1=O` (centres undefined), the survivor count (dose: 240.0 mg/kg/injection, schedule: Q01DX005 (ip), vehicle: Klucel (hydroxypropylcellulose) (HPC)) was 3 of 6.

`CCC(C)(C)N=C(Nc1cccnc1)Nc1ncccn1` was tested, and the survivor count (dose: 400.0 mg/kg/injection, schedule: Q04DX003 (ip), vehicle: saline) was 4 of 6.

For `C1CCC(NC2CCCCC2)CC1`, the survivor count (dose: 120.0 mg/kg/injection, schedule: Q01DX005 (ip), vehicle: saline) was 0 of 6.

`C=C1CC[C@]2(C)CC[C@]3(C)C4=CC=C5C(=CC(=O)C(O)=C5C)[C@]4(C)CC[C@@]3(C)[C@@H]2C1` was tested, and the survivor count (dose: 0.12 mg/kg/injection, schedule: Q01DX009 (ip), vehicle: saline with Tween-80) was 6 of 6, the survivor count (dose: 0.38 mg/kg/injection, schedule: Q01DX009 (ip), vehicle: none) was 6 of 6 and the T/C (dose: 0.75 mg/kg/injection, schedule: Q01DX009 (ip), vehicle: none) was 125 % of control. For the same compound, the T/C (dose: 1.0 mg/kg/injection, schedule: Q01DX009 (ip), vehicle: none) was 147 % of control, the survivor count (dose: 1.0 mg/kg/injection, schedule: Q01DX009 (ip), vehicle: saline with Tween-80) was 6 of 6 and the survivor count (dose: 2.0 mg/kg/injection, schedule: Q01DX009 (ip), vehicle: saline with Tween-80) was 5 of 6. For the same compound, the survivor count (dose: 4.0 mg/kg/injection, schedule: Q01DX009 (ip), vehicle: saline with Tween-80) was 0 of 6 and the survivor count (dose: 8.0 mg/kg/injection, schedule: Q01DX009 (ip), vehicle: saline with Tween-80) was 0 of 6.

For `NCCSC(C[N+](=O)[O-])c1ccc2c(c1)OCO2` (centres undefined), the T/C (dose: 50.0 mg/kg/injection, schedule: Q01DX009 (ip), vehicle: saline with Tween-80) was 129 % of control, the T/C [2] was 135 % of control and the survivor count [3] was 4 of 6.

With `Oc1ccc(N=Cc2ccccn2)cc1` the T/C [3] was 125 % of control.

For `O=C(O)c1cc2c([N+](=O)[O-])cccc2[se]1`, the survivor count (dose: 100.0 mg/kg/injection, schedule: Q01DX009 (ip), vehicle: saline) was 6 of 6 and the survivor count [4] was 6 of 6.

In the case of `CC1(C(=O)O)CCC2(C)CCC3(C)C(=CC(=O)C4C5(C)CCC(O)C(C)(C)C5CCC43C)C2C1` (centres undefined), the survivor count [5] is reported as 0 of 6.

For `CCN1C2=NCCN2C(=O)c2ccccc21`, the survivor count [6] was 0 of 6.

In the case of `COc1ccc(Cc2cc(O)c(OC)cc2O)cc1`, the survivor count (dose: 2.5 mg/kg/injection, schedule: Q01DX009 (ip), vehicle: saline with Tween-80) is reported as 6 of 6.

With `c1ccc2c(c1)c1c(c3ccccc32)CNCC1` the survivor count [7] was 5 of 5, the survivor count [8] was 4 of 5 and the survivor count [9] was 1 of 6. The survivor count [10] was 0 of 6.

With `Cc1ccccc1-[n+]1noc(N)n1` the T/C (dose: 22.0 mg/kg/injection, schedule: Q01DX009 (ip), vehicle: water) was 130 % of control, the T/C (dose: 25.0 mg/kg/injection, schedule: Q01DX009 (ip), vehicle: water) was 129 % of control and the T/C (dose: 33.0 mg/kg/injection, schedule: Q01DX009 (ip), vehicle: water) was 141 % of control. For the same compound, the T/C [11] was 146 % of control, the survivor count [11] was 5 of 6 and the survivor count (dose: 75.0 mg/kg/injection, schedule: Q01DX009 (ip), vehicle: water) was 4 of 6. The survivor count (dose: 100.0 mg/kg/injection, schedule: Q01DX009 (ip), vehicle: water) was 0 of 6.

`[Cl][Mo]([Cl])([Cl])[Cl].[Cl][Mo]([Cl])([Cl])[Cl]` was tested, and the survivor count [4] was 5 of 6.

With `CCCN(CCC)C(C)C(O)c1cccc2ccccc12` (centres undefined) the survivor count (dose: 200.0 mg/kg/injection, schedule: Q01DX005 (ip), vehicle: saline) was 0 of 5.

In the case of `O=C(O)/C=C/C(=O)Nc1ccc(Cl)c(Cl)c1`, the T/C (dose: 50.0 mg/kg/injection, schedule: Q01DX009 (ip), vehicle: Klucel (hydroxypropylcellulose) (HPC)) is reported as 97, 119, 125, 133 % of control, the T/C (dose: 100.0 mg/kg/injection, schedule: Q01DX009 (ip), vehicle: Klucel (hydroxypropylcellulose) (HPC)) is reported as 106, 120, 127, 137 % of control [5 of 6 alive] and the T/C [6] is reported as 101, 125 [5 of 6 alive], 132 % of control. For the same compound, the survivor count [6] was 6 of 6 and the survivor count (dose: 400.0 mg/kg/injection, schedule: Q01DX009 (ip), vehicle: Klucel (hydroxypropylcellulose) (HPC)) was 5 of 6.

With `O=C(c1ccccc1)c1cnc2ccccn12` the survivor count [5] was 0 of 6.

With `Cc1ccc(COc2ccc(Cl)cc2Cn2ccnc2)cc1` the survivor count (dose: 200.0 mg/kg/injection, schedule: Q04DX002 (ip), vehicle: saline) was 2 of 6 and the survivor count (dose: 400.0 mg/kg/injection, schedule: Q04DX002 (ip), vehicle: saline) was 0 of 6.

In the case of `Cc1cc2[n-]c1/C=c1\[n-]/c(c(CCC(=O)O)c1C)=C\c1[n-]c(c(C)c1CCC(=O)O)/C=c1/cc(C)/c([n-]1)=C/2.[Co]`, the survivor count (dose: 50.0 mg/kg/injection, schedule: Q01DX005 (ip), vehicle: Klucel (hydroxypropylcellulose) (HPC)) is reported as 5 of 5 and the survivor count (dose: 100.0 mg/kg/injection, schedule: Q01DX005 (ip), vehicle: Klucel (hydroxypropylcellulose) (HPC)) is reported as 5 of 5.

With `CN(C)P1(=O)OCC(C(C)(C)C)CN1c1ccccc1` (centres undefined) the survivor count [5] was 0 of 6.

For `CC1=C(c2ccccc2)C2(c3ccccc3)[N-][n+]3c(ccc4ccccc43)C2(C)C1=O` (centres undefined), the survivor count [12] was 3 of 5.

With `c1ccc2c(c1)Cc1c-2nc2ccccc2c1N1CCOCC1` the T/C [10] was 125 % of control.

`Nc1ccncc1N` was tested, and the survivor count [1] was 0 of 6 and the survivor count (dose: 40.0 mg/kg/injection, schedule: Q01DX009 (ip), vehicle: saline) was 0 of 6.

With `CC(C)NC(=O)OCc1c(COC(=O)NC(C)C)c(-c2ccc(Cl)c(Cl)c2)n2c1CS(=O)(=O)C2` the survivor count [7] was 6 of 6, the survivor count [8] was 6 of 6 and the survivor count [9] was 6 of 6.

With `COc1ccc(N2CSC(=S)N(c3ccc(OC)cc3)C2)cc1` the survivor count [2] was 6 of 6 and the survivor count [3] was 6 of 6.

In the case of `CCOC(=O)Nc1cc(NC/C(CN(C)c2ccc(OC)cc2)=N/O)c([N+](=O)[O-])c(N)n1`, the survivor count [10] is reported as 6 of 6.

For `NC(N)=NC(N)=Nc1ccc(-c2ccc(N=C(N)N=C(N)N)cc2)cc1`, the T/C (dose: 12.5 mg/kg/injection, schedule: Q01DX009 (ip), vehicle: saline with Tween-80) was 133 % of control and the survivor count (dose: 25.0 mg/kg/injection, schedule: Q01DX009 (ip), vehicle: saline with Tween-80) was 4 of 6.

In the case of `N/C(=N\O)c1cn(C2OC(CO)C(O)C2O)c2ncnc(N)c12` (centres undefined), the T/C (dose: 0.3 mg/kg/injection, schedule: Q01DX009 (ip), vehicle: saline sonified) is reported as 140 % of control, the T/C (dose: 0.6 mg/kg/injection, schedule: Q01DX009 (ip), vehicle: saline sonified) is reported as 145 % of control and the T/C (dose: 1.25 mg/kg/injection, schedule: Q01DX009 (ip), vehicle: saline sonified) is reported as 140 % of control. For the same compound, the survivor count (dose: 10.0 mg/kg/injection, schedule: Q01DX009 (ip), vehicle: saline sonified) was 6 of 6 and the survivor count (dose: 20.0 mg/kg/injection, schedule: Q01DX009 (ip), vehicle: saline sonified) was 5 of 6.

For `O=C(Nc1n[nH]c(NC(=O)c2ccccc2)n1)c1ccccc1`, the survivor count [12] was 6 of 6.

In the case of `Nc1ncnc2c1ncn2[C@@H](C=O)O[C@@H](C=O)CO`, the T/C (dose: 1.56 mg/kg/injection, schedule: Q01DX009 (ip), vehicle: other) is reported as 128 and 138 % of control, the T/C (dose: 3.13 mg/kg/injection, schedule: Q01DX009 (ip), vehicle: other) is reported as 141 % of control and the survivor count (dose: 25.0 mg/kg/injection, schedule: Q01DX009 (ip), vehicle: other) is reported as 2 of 6 and 3 of 6. For the same compound, the survivor count (dose: 50.0 mg/kg/injection, schedule: Q01DX009 (ip), vehicle: other) was 1 of 6.

For `COc1cccc2c1C(=O)c1c(O)c3c(c(O)c1C2=O)[C@@H](N=[N+]=[N-])[C@@](O)(C(C)=O)C[C@@H]3OC1CC(N)C(O)C(C)O1` (some centres undefined), the T/C (dose: 25.0 mg/kg/injection, schedule: Q04DX003 (ip), vehicle: water) was 136 % of control [5 of 6 alive on day 9].

In the case of `CC(C)N[C@@H]1CCC[C@@H]2c3ccccc3[C@@]21O`, the survivor count (dose: 240.0 mg/kg/injection, schedule: Q01DX005 (ip), vehicle: saline) is reported as 0 of 6.
